# Test results reported in the supplement of paper PMC8728848.
# This is one part of the list.
# B1: AFL6 (Aspergillus fumigatus), Q4WKJ1 (protein)
# chain: MSFHLTAEDIRIEDGHRLVARLRNADGDLQDASIDLNTCLGNDNGHFQWDGVDFSHSAQDVHFAIEGGGQVPVLRAQLANQDGEFQDADVNLSERIENINGEFVFH
# Legend:
# Test in all cases: glycan array binding signal (z-score within array); higher = stronger binding
# Details in all cases: glycan notation: IUPAC condensed, linker removed
# Fuc(a1-2)Gal(b1-4)Glc = target: Fuc(a1-2)Gal(b1-4)Glc
# Summary of the method: (§1)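 The binding signal is a Z-score computed within each array. Data were drawn from 3228 arrays in the Consortium for Functional Glycomics database, restricted to those with a known protein sequence. Scores were averaged over arrays of the same protein sequence at different concentrations or buffers, and over linkers, and negative values can be taken as non-binding.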
# Fuc(a1-2)Gal(b1-4)Glc6S = target: Fuc(a1-2)Gal(b1-4)Glc6S
# Summary of the method: as §1
# Fuc(a1-2)Gal(b1-4)GlcNAc = target: Fuc(a1-2)Gal(b1-4)GlcNAc
# Summary of the method: as §1
# [1] = target: Fuc(a1-2)Gal(b1-4)GlcNAc(b1-2)Man
# Summary of the method: as §1
# [2] = target: Fuc(a1-2)Gal(b1-4)GlcNAc(b1-2)Man(a1-3)[Fuc(a1-2)Gal(b1-4)GlcNAc(b1-2)Man(a1-6)]Man(b1-4)GlcNAc(b1-4)GlcNAc
# Summary of the method: as §1
# [3] = target: Fuc(a1-2)Gal(b1-4)GlcNAc(b1-2)Man(a1-3)[Fuc(a1-2)Gal(b1-4)GlcNAc(b1-2)Man(a1-6)]Man(b1-4)GlcNAc(b1-4)[Fuc(a1-6)]GlcNAc
# Summary of the method: as §1
# [4] = target: Fuc(a1-2)Gal(b1-4)GlcNAc(b1-2)[Fuc(a1-2)Gal(b1-4)GlcNAc(b1-4)]Man(a1-3)[Fuc(a1-2)Gal(b1-4)GlcNAc(b1-2)Man(a1-6)]Man(b1-4)GlcNAc(b1-4)GlcNAc
# Summary of the method: as §1
# [5] = target: Fuc(a1-2)Gal(b1-4)GlcNAc(b1-3)Gal(b1-4)GlcNAc
# Summary of the method: as §1
# [6] = target: Fuc(a1-2)Gal(b1-4)GlcNAc(b1-3)Gal(b1-4)GlcNAc(b1-2)Man(a1-3)[Fuc(a1-2)Gal(b1-4)GlcNAc(b1-3)Gal(b1-4)GlcNAc(b1-2)Man(a1-6)]Man(b1-4)GlcNAc(b1-4)GlcNAc
# Summary of the method: as §1
# [7] = target: Fuc(a1-2)Gal(b1-4)GlcNAc(b1-3)Gal(b1-4)GlcNAc(b1-3)Gal(b1-4)GlcNAc
# Summary of the method: as §1
# [8] = target: Fuc(a1-2)Gal(b1-4)GlcNAc(b1-3)GalNAc
# Summary of the method: as §1
# [9] = target: Fuc(a1-2)Gal(b1-4)GlcNAc(b1-3)[Fuc(a1-2)Gal(b1-4)GlcNAc(b1-6)]GalNAc
# Summary of the method: as §1
# [10] = target: Fuc(a1-2)Gal(b1-4)GlcNAc(b1-3)[Fuc(a1-3)[Gal(b1-4)]GlcNAc(b1-6)]Gal(b1-4)Glc
# Summary of the method: as §1
# [11] = target: Fuc(a1-2)Gal(b1-4)GlcNAc(b1-6)GalNAc
# Summary of the method: as §1
# [12] = target: Fuc(a1-2)Gal(b1-4)GlcNAc6S
# Summary of the method: as §1
# [13] = target: Fuc(a1-2)Gal(b1-4)[Fuc(a1-3)]GlcNAc
# Summary of the method: as §1
# [14] = target: Fuc(a1-2)Gal(b1-4)[Fuc(a1-3)]GlcNAc(b1-2)Man(a1-3)[Fuc(a1-2)Gal(b1-4)[Fuc(a1-3)]GlcNAc(b1-2)Man(a1-6)]Man(b1-4)GlcNAc(b1-4)[Fuc(a1-6)]GlcNAc
# Summary of the method: as §1
# [15] = target: Fuc(a1-2)Gal(b1-4)[Fuc(a1-3)]GlcNAc(b1-2)[Fuc(a1-2)Gal(b1-4)[Fuc(a1-3)]GlcNAc(b1-4)]Man(a1-3)[Fuc(a1-2)Gal(b1-4)[Fuc(a1-3)]GlcNAc(b1-2)Man(a1-6)]Man(b1-4)GlcNAc(b1-4)GlcNAc
# Summary of the method: as §1
# [16] = target: Fuc(a1-2)Gal(b1-4)[Fuc(a1-3)]GlcNAc(b1-3)Gal(b1-4)[Fuc(a1-3)]GlcNAc
# Summary of the method: as §1
# [17] = target: Fuc(a1-2)Gal(b1-4)[Fuc(a1-3)]GlcNAc(b1-3)Gal(b1-4)[Fuc(a1-3)]GlcNAc(b1-3)Gal(b1-4)[Fuc(a1-3)]GlcNAc
# Summary of the method: as §1
# [18] = target: Fuc(a1-2)Gal(b1-4)[Fuc(a1-3)]GlcNAc(b1-3)GalNAc
# Summary of the method: as §1
# [19] = target: Fuc(a1-2)Gal(b1-4)[Fuc(a1-3)]GlcNAc(b1-3)[Neu5Ac(a2-6)Gal(b1-4)GlcNAc(b1-6)]Gal(b1-4)Glc
# Summary of the method: as §1
# [20] = target: Fuc(a1-2)Gal3S(b1-4)GlcNAc
# Summary of the method: as §1
binder,measurement,setting,value
B1,glycan array binding signal (z-score),Fuc(a1-2)Gal(b1-4)Glc,0.026
same,glycan array binding signal (z-score),Fuc(a1-2)Gal(b1-4)Glc6S,-0.234
same,glycan array binding signal (z-score),Fuc(a1-2)Gal(b1-4)GlcNAc,-0.661
same,glycan array binding signal (z-score),[1],-0.134
same,glycan array binding signal (z-score),[2],1.61
same,glycan array binding signal (z-score),[3],0.943
same,glycan array binding signal (z-score),[4],0.487
same,glycan array binding signal (z-score),[5],-0.096
same,glycan array binding signal (z-score),[6],1.21
same,glycan array binding signal (z-score),[7],-0.172
same,glycan array binding signal (z-score),[8],-0.685
same,glycan array binding signal (z-score),[9],-0.416
same,glycan array binding signal (z-score),[10],-0.559
same,glycan array binding signal (z-score),[11],-0.193
same,glycan array binding signal (z-score),[12],-0.334
same,glycan array binding signal (z-score),[13],-0.131
same,glycan array binding signal (z-score),[14],1.95
same,glycan array binding signal (z-score),[15],0.702
same,glycan array binding signal (z-score),[16],-0.293
same,glycan array binding signal (z-score),[17],0.433
same,glycan array binding signal (z-score),[18],0.408
same,glycan array binding signal (z-score),[19],-0.528
same,glycan array binding signal (z-score),[20],-0.365

# Quoted at random: 2 entries already listed, in no set order.
binder,measurement,setting,value
B1,glycan array binding signal (z-score),[1],-0.134
same,glycan array binding signal (z-score),Fuc(a1-2)Gal(b1-4)Glc,0.026
